Source: patent publication US20230165981A1, “[161Tb]-BASED RADIOPEPTIDES” (priority 2021, published 2023)
Part of at least one peptide drawing is inferred or uncertain, most often the ends. Starred links: 1 amine or outer side, 2 acyl side, 3 side chain; linkers in the order of their positions; H or OH if unused. Positions of bridges follow the written chain, without caps; N, C: chain ends. Non-standard residues stand in square brackets, D forms with d. Residues, ends and D or L forms follow the SMILES beside them. *: point of attachment. DOTA = O=C(O)CN1CCN(CC(=O)O)CCN(CC(=O)*)CCN(CC(=O)O)CC1; dPhe(4-NHCONH2) = NC(=O)Nc1ccc(C[C@@H](N)C(=O)O)cc1; X1 = NC(=O)Nc1ccc(CC(N[*:1])C(=O)[*:2])cc1; Phe(4-Cl) = N[CH](Cc1ccc(Cl)cc1)C(=O)O

Tested on: AR42J tumors
Experiment: Preclinical therapy study in AR42J tumor-bearing mice
Assay type: in vivo

SMILES | mice surviving until the end of the study (mouse, in vivo) | Median survival (2 x 10 MBq, 0.2 nmol) [days] | mice surviving until the end of the study (49 days, n=6)
CC(O)C1NC(=O)C(CCCCN)NC(=O)C(Cc2ccc(NC(N)=O)cc2)NC(=O)C(Cc2ccc(O)cc2)NC(=O)C(NC(=O)C(Cc2ccc(Cl)cc2)NC(=O)CN2CCN(CC(=O)O)CCN(CC(=O)O)CCN(CC(=O)O)CC2)CSSCC(C(=O)NC(Cc2ccc(O)cc2)C(N)=O)NC1=O (stereo not drawn) [metal not drawn] ({DOTA}-[Phe(4-Cl)]CY[X1]KTCY-NH2; disulfide 2-7; configuration not given here) | All mice | – | –
C[C@@H](O)[C@@H]1NC(=O)[C@H](CCCCN)NC(=O)[C@@H](Cc2ccc(NC(N)=O)cc2)NC(=O)[C@H](Cc2ccc(O)cc2)NC(=O)[C@H](NC(=O)[C@H](Cc2ccc(Cl)cc2)NC(=O)CN2CCN(CC(=O)O)CCN(CC(=O)O)CCN(CC(=O)O)CC2)CSSC[C@@H](C(=O)N[C@H](Cc2ccc(O)cc2)C(N)=O)NC1=O [metal not drawn] ({DOTA}-[Phe(4-Cl)][dC]Y[dPhe(4-NHCONH2)]KTC[dY]-NH2; disulfide 2-7) | – | 48.5 | three out of six mice
